Data on 2 molecules can be found in PMC11097450.

The target of experiment [1] is T1, MARCKS (myristoylated alanine-rich c-kinase substrate) (human (endogenous in 293T and TNBC cells)) (UniProt P29966).
T1 sequence: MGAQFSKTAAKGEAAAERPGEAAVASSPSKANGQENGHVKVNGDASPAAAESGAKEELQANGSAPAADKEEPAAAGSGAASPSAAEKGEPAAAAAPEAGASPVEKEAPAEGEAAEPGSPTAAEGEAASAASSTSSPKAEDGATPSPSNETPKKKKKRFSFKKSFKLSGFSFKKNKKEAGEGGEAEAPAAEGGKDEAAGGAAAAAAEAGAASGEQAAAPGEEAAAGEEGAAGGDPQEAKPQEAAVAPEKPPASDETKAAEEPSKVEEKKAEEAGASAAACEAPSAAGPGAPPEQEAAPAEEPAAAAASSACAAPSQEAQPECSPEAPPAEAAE
The experiment is described as follows: co-IP; TRIM1-269aa-Flag transfected into 293T and TNBC cells; IP with Flag, MARCKS or calmodulin antibodies, protein A/G beads, western blot; lysis buffer 1% Triton X-100, 50 mM Tris pH 7.5, 1 mM EDTA, 150 mM NaCl.

In experiment [2] the target is TRIM1-269aa-Flag (human). The description is as above.

Results are given in words; binding and its absence hold for the method and conditions named. Binding seen in cells or lysates may run through a third protein. A result given as binding can be weak or reduced; the word gives no strength.

With TRIM1-269aa-Flag (human), the binding result in experiment [1] is “binds”.

B1: MARCKS (myristoylated alanine-rich c-kinase substrate) (protein, UniProt P29966 1-332)
chain: T1 sequence
Consider B1, for which the binding entry in experiment [2] is on record as “binds”.
